The text below walks through data of PubChem BioAssay AID445 (National Center for Advancing Translational Sciences (NCATS), 2006).

The nature of this assay: IkB Signaling. Conditions: ABC-DLBCL IkBa-CBG/CBR dual luciferase ratio (green luciferase fused to IkBa over red control in OCI-Ly3 lymphoma cells), 4 h. The method, boiled down:
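In this assay, an IκBα–CBG68 fusion accumulates when IKK-driven degradation is blocked; native CBR normalizes for cell number. OCI-Ly3 cells were treated 4 h with compound and doxycycline, then green and red light read after Chroma-Glo addition.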

Setting [1] is: measured here: control luc red channel unless noted.
The mark [2] stands for this setting: measured here: IkB-luc green channel.
[3] abbreviates: measured here: control luc red channel.

The structures appear in SMILES notation. This is one part of the list. Shown are side measurements of this screen, not its main read-out; they come without a call. The list favours compounds with an active or inconclusive main result. Words in brackets tell the shape of the fitted curve; partial curves, single points and poor fits give uncertain potencies.

Consider `Cc1c(C(=O)CN2CCOCC2)[nH]c2ccccc12`, for which the AC50 – broadly, the concentration at which the activity in the assay is half-maximal – under setting [1] was 20 µM [falling, partial curve].
As to `CCc1cccc(OCC(=O)Nc2ccc(S(=O)(=O)Nc3cc(C)nc(C)n3)cc2)c1`, the concentration at half-maximal activity (AC50) under setting [1] is 20 µM [falling, single point].
The same measure, in the same setting: the figure for `Cc1ccc(-c2nnc(Nc3ccc(O)cc3)c3ccccc23)cc1S(=O)(=O)N1CCN(C)CC1` is 15.8 µM [falling, partial curve]; for `COc1ccc(Nc2cc(C(=O)NCCc3ccc(C)cc3)c3ccccc3n2)c(OC)c1` it is 3.16 µM [falling, full curve].
As to `O=c1[nH]n(CC2COC3(CCCCC3)O2)c(=O)c2ccccc12` (centres undefined), the AC50 under setting [1] was 631 nM [rising, full curve] [measured here: IkB-luc green channel].
Still for that read-out and setting: the figure for `COc1ccc(C(=O)SC2=NCCS2)cc1OC` is 31.6 µM [falling, partial curve]; for `CCCCOc1ccc(C(=O)Nc2nnc3n2CCS3)cc1` it is 39.8 µM [falling, single point].
`O=C(Nc1cccc(C(=O)OCc2cc(=O)n3nc(C4CC4)sc3n2)c1)c1ccccc1`: the half-maximal activity concentration (AC50) is 3.16 µM [rising, single point] under setting [2] and 0.794 µM [falling, full curve] under setting [3].
As for `Cc1cc(C)cc(OC(C)C(=O)Nc2nonc2-c2ccc(Br)cc2)c1` (centres undefined), under setting [1], the half-maximal activity concentration (AC50) is 31.6 µM [falling, single point].
Still for that read-out and setting: the figure for `Cc1ccc(Cl)cc1N(C)C(=O)Cn1nc(Cc2cccnc2)c2ccccc2c1=O` is 39.8 µM [falling, single point]; for `Nc1c(-c2nc(-c3cccs3)no2)nnn1-c1ccccc1Cl` it is 0.2 µM [rising, full curve].
Same read-out and setting: then `CCOc1cccc(CNC(=O)c2ccc(N3CCCC3)c(NC(=O)NCc3ccc(F)cc3)c2)c1`, with 7.94 µM [falling, full curve, poor fit]; and `CCN(CC)CCOC(=O)c1ccc(NC(=O)Cn2ncc3c([nH]c4ccc(C)cc43)c2=O)cc1`, with 12.6 µM [falling, partial curve]; and `Cc1ccc(-n2nc(C)c(C(=O)NCCCN3CCN(c4ccc(F)cc4)CC3)c2-n2cccc2)cc1`, with 7.94 µM [falling, partial curve].
Regarding `Cc1ccnc(NC(=O)C2CCC(CNc3c(N4CCCC4)c(=O)c3=O)CC2)c1` (centres undefined), the AC50 under setting [2] was 6.31 µM [falling, partial curve] and the concentration at half-maximal activity (AC50) under setting [3] is 7.94 µM [falling, full curve, poor fit].
With `Cc1ccccc1CS(=O)(=O)CC1Nc2ccc(C(=O)NCc3ccc(Cl)cc3)cc2NC1=O` (centres undefined), the AC50 under setting [1] is 10 µM [falling, partial curve].
For `CCN(CC)c1ccc2oc(=O)c(C)nc2c1`, the half-maximal activity concentration (AC50) under setting [2] was 3.16 µM [rising, partial curve] and the AC50 under setting [3] was 15.8 µM [falling, partial curve].
With `Cc1nc2ccccc2c2oc(C(=O)NCc3ccccn3)cc12`, the AC50 under setting [1] was 31.6 µM [falling, single point].
Still for that read-out and setting: the figure for `CCOc1cc(C(=O)N2CC(=O)Nc3ccc(C)cc3C2c2ccccc2)cc(OCC)c1OCC` (centres undefined) is 5.01 µM [falling, partial curve]; for `CCc1ccc(CN(Cc2ccco2)C(=O)c2ccc(OC)cc2)cc1` it is 31.6 µM [falling, single point]; for `CCc1ccc(CNC(=O)CCC(=O)N2Cc3cccc(OC)c3Oc3ncccc32)cc1` it is 39.8 µM [falling, single point].
Still for that read-out and setting: the figure for `Cc1cc2ncn(-c3ncnc4sc(C)c(C)c34)c2cc1C` is 39.8 µM [falling, partial curve]; for `O=C(C1CCN(S(=O)(=O)c2ccc(Br)s2)CC1)N1CCN(c2cccc(Cl)c2)CC1` it is 12.6 µM [falling, partial curve]; for `CCOc1ccc(CCNC(=O)c2sc3nc4n(c(=O)c3c2C)CCCC4)cc1OCC` it is 15.8 µM [falling, partial curve].
`CCOC(=O)c1ccc(NC(=O)CCn2c(=O)c3cccn3c3ccccc32)cc1`: the AC50 under setting [1] is 31.6 µM [falling, single point].
Regarding `Cc1ccc2[nH]c(CSc3nnc(NC(=O)COc4ccccc4)s3)cc(=O)c2c1`, the AC50 under setting [1] was 15.8 µM [falling, partial curve].
Consider `COc1ccc(-n2c(SCC(=O)Nc3ccc(Cl)c(C)c3)nc3n[nH]c(C)c3c2=N)cc1`, for which, under setting [1], the AC50 was 5.01 µM [falling, full curve].
Regarding `CCOC(=O)c1c(NC(=O)c2ccc(S(=O)(=O)N3CCC(C)CC3)cc2)sc2c1CCN(C)C2`, the AC50 under setting [1] was 39.8 µM [falling, single point].
As to `CC1(C)Cc2ccccc2-c2nnc(SCC(=O)Nc3ccc4c(c3)OCO4)n21`, under setting [1], the AC50 is 12.6 µM [falling, partial curve].
On the same count and under the same terms, then `Cc1cccc(C)c1NC(=O)C(NS(=O)(=O)c1ccc2c(c1)CCC(=O)N2)c1ccccc1` (centres undefined), with 0.501 µM [falling, full curve].
Same read-out and setting: the figure for `Cc1c2cnn(-c3ccccc3)c(=O)c2c(C)n1CCCC(=O)Nc1cc(F)ccc1F` is 12.6 µM [falling, partial curve]; for `CCN(c1cccc(C)c1)S(=O)(=O)c1nnc(NC(=O)C2CCCCC2)s1` it is 7.94 µM [falling, full curve, poor fit]; for `O=C(CSC1=Nc2ccccc2C2=NC(CC(=O)NC3CCCCC3)C(=O)N12)Nc1ccc(F)cc1` (centres undefined) it is 20 µM [falling, partial curve].
The same measure, in the same setting: then `COc1ccc(-c2nc3sc(CCNC(=O)c4cc(OC)c(OC)c(OC)c4)c(C)n3n2)cc1`, with 20 µM [falling, partial curve]; and `COc1ccc(N2CCN(S(=O)(=O)c3ccc4oc(=O)c5ncn(C)c5c4c3)CC2)cc1`, with 0.0126 µM [rising, full curve]; and `CCCCOCCCn1c(-c2ccco2)nc2nc3ccccc3nc21`, with 12.6 µM [falling, partial curve].
With `CCCn1c(SCc2ccc(Cl)cc2)nc2c1c(=O)[nH]c(=O)n2C`, under setting [1], the AC50 is 39.8 µM [falling, single point].
On the same count and under the same terms, the figure for `COC(=O)c1scc(-c2ccc(C)cc2)c1S(=O)(=O)Nc1cc(Cl)ccc1C` is 12.6 µM [falling, partial curve]; for `CCc1ccc(S(=O)(=O)c2cn(CC(=O)Nc3ccc(C)cc3)c3ccccc3c2=O)cc1` it is 12.6 µM [falling, partial curve]; for `CCOC(=O)c1[nH]c2c(c1Cc1ccccc1)C(=O)CC(c1ccc(Cl)cc1)C2` (centres undefined) it is 3.98 µM [falling, full curve].
Same read-out and setting: then `Nc1c(-c2ccccc2)n[nH]c1-c1ccccc1`, with 5.01 µM [falling, partial curve]; and `COc1cccc(C(c2sc3nc(-c4ccco4)nn3c2O)N2CCC(O)CC2)c1` (centres undefined), with 0.501 µM [rising, partial curve].
The same measure, in the same setting: then `CCOc1ccc(CCNC(=O)c2ccc3c(Cl)c4c(nc3c2)CCCC4)cc1`, with 3.16 µM [falling, full curve]; and `CCOc1ccccc1NC(=O)c1sc2nc3n(c(=O)c2c1C)CCCCC3`, with 25.1 µM [falling, single point]; and `Cc1ccc(-c2nc3scc(CCNC(=O)Cc4ccc(Cl)cc4)n3n2)cc1`, with 20 µM [falling, partial curve].
For the molecule `CCOc1ccc(N(C(=O)CC(C)C)S(=O)(=O)c2ccc3c(c2)oc(=O)n3C)cc1`, the half-maximal activity concentration (AC50) under setting [1] was 15.8 µM [falling, partial curve].
For the molecule `CCOc1ccc(CC(=O)NCCc2csc(-c3ccc(C)cc3)n2)cc1`, the half-maximal activity concentration (AC50) under setting [1] was 31.6 µM [falling, single point].
Consider `CCN(CC)c1ccc(NS(=O)(=O)c2ccc(-c3cnc(C4CC4)o3)cc2)c(C)c1`, for which the half-maximal activity concentration (AC50) under setting [1] is 20 µM [falling, partial curve].
In the case of `Cc1noc(C)c1S(=O)(=O)N(CC(=O)NCc1ccc2c(c1)OCO2)c1ccc(C(C)C)cc1`, the AC50 under setting [1] was 15.8 µM [falling, partial curve].
Same read-out and setting: the figure for `CCC1CN(C(=O)N2CCC(C(=O)NCCc3ccc(Cl)cc3)CC2)c2ccccc2O1` (centres undefined) is 5.01 µM [rising, partial curve]; for `CCCn1c(SCc2nc(-c3ccc(OC)cc3OC)no2)nnc1-c1ccc(Cl)cc1` it is 20 µM [falling, single point].
`Cc1ccc(NC(=O)Cn2cc(C(=O)C3CC3)c3ccccc32)cc1`: the half-maximal activity concentration (AC50) under setting [1] is 39.8 µM [rising, single point].
For `COc1ccc(-c2noc(CN(C(=O)COc3cc(C)c(Br)c(C)c3)C(C)C)n2)cc1`, under setting [1], the AC50 is 25.1 µM [falling, single point].
`COc1cccc(CNC(=O)c2ccc3nc(N4CCCCC4)sc3c2)c1OC`: the half-maximal activity concentration (AC50) under setting [1] was 39.8 µM [falling, single point].
Still for that read-out and setting: the figure for `Cc1ccc(CN2CCSc3ccc(C(=O)N4CCN(c5ccc(Cl)cc5)CC4)cc32)cc1` is 7.94 µM [falling, partial curve]; for `COc1ccccc1NC(=O)c1cc(S(=O)(=O)NCCc2ccccc2)ccc1F` it is 31.6 µM [falling, partial curve, poor fit]; for `O=c1c2cccnc2n(Cc2ccccc2F)c(=O)n1Cc1ccc(F)cc1` it is 39.8 µM [falling, single point].
On the same count and under the same terms, the figure for `CCCCN1C(=O)c2[nH]nc(-c3ccccc3O)c2C1c1cc(Br)c(O)c(OC)c1` (centres undefined) is 12.6 µM [falling, partial curve].
As for `CCOc1ccc(C(C)=O)cc1N1C(=O)C2C3C=CC(O3)C2C1=O` (centres undefined), under setting [1], the AC50 is 10 µM [falling, partial curve].
For the molecule `O=S(=O)(Nc1ccc2nc(-c3ccc(F)cc3)oc2c1)c1ccccc1`, the concentration at half-maximal activity (AC50) under setting [1] was 31.6 µM [falling, single point].
The same measure, in the same setting: then `O=C(CCn1c(=O)[nH]c2ccsc2c1=O)N1CCN(c2cccc(Cl)c2)CC1`, with 15.8 µM [falling, partial curve].
